Test results from publication PMC10865844.

Chains of the proteins cited; added tags and fusions are not shown. Lines headed by an entry give the natural chain unless they say otherwise; changes in a name come on top.
UniProt J9VNH4: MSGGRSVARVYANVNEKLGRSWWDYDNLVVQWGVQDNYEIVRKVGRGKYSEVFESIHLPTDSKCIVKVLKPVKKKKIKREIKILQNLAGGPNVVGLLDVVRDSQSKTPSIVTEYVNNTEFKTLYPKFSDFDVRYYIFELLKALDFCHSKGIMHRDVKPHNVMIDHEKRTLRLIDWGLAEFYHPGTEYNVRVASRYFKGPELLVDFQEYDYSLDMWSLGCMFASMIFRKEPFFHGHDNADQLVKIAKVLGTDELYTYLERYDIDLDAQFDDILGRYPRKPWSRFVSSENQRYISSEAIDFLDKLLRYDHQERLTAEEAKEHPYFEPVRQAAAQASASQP
UniProt J9VQR1: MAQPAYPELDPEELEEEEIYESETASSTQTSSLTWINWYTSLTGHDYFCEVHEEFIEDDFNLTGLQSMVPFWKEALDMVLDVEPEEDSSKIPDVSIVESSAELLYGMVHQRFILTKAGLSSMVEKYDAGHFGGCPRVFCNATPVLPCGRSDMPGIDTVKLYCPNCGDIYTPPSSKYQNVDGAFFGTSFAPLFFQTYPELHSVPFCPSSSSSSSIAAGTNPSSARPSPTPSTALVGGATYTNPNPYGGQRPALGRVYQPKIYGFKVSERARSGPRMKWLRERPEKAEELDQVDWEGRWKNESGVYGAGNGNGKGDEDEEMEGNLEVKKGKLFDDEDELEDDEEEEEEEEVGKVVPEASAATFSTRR
UniProt J9VM18: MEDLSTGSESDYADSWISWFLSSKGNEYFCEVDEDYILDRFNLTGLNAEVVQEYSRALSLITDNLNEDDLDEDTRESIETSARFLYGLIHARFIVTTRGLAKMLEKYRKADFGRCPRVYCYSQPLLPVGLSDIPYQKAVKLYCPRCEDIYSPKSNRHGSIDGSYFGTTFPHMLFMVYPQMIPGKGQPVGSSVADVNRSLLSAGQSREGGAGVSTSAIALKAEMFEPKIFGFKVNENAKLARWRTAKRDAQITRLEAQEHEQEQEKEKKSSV

Tests used:
[1] = molecular target: Cka1-4xFLAG (CK2 catalytic subunit Cka1 of Cryptococcus neoformans) (Cryptococcus neoformans) (UniProt J9VNH4); experiment: co-IP; whole cell lysates of co-tagged C. neoformans strains; lysis buffer 50 mM Tris-Cl pH 7.5, 1% sodium deoxycholate, 5 mM NaF, 0.1% SDS, 1% Triton X-100; anti-FLAG antibody overnight at 4°C, protein G Sepharose 6 h, three washes; blot with anti-HA
[2] = molecular target: Ckb1-4xFLAG (CK2 regulatory subunit Ckb1 of Cryptococcus neoformans) (Cryptococcus neoformans) (UniProt J9VQR1); experiment: as above

Row | Substance | binding [1] | binding [2]
1 | Ckb1-6xHA (CK2 regulatory subunit Ckb1 of Cryptococcus neoformans) (from UniProt J9VQR1) | binds | –
2 | Ckb2-6xHA (CK2 regulatory subunit Ckb2 of Cryptococcus neoformans) (from UniProt J9VM18) | binds | binds

Results are given in words; binding and its absence hold for the method and conditions named. In cells and extracts the contact can be indirect. A result given as binding can be weak or reduced; the word gives no strength.
